PubChem BioAssay AID2685 (National Center for Advancing Translational Sciences (NCATS), 2010)
The list shows a part of the results. Further columns of the screen follow, without active or inactive calls. Most of these compounds were active or inconclusive in the main read-out, so they are no random draw. The note in brackets gives the kind of curve behind each potency; many fits are weak.

Experiment: qHTS Assay for Lipid Storage Modulators in Drosophila S3 Cells;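 on cell number change: cells counted by Cell Tracker Red CMTPX staining in the red channel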
Conditions: BODIPY lipid droplet fluorescence, 18-24 h; for cell number change: measured here: cell count max response, cells fed with added oleic acid
Method in brief: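 Drosophila S3 cells loaded with oleic acid (400 uM, as added) and compounds at several concentrations; lipid droplets imaged by 488-nm laser-scanning cytometry, 500–530 nm intensity and object ratio to cell channel. Percent activity normalized to 20 uM Triacsin C.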

[1] = measured here: lipid fluorescence (Fed channel) AC50, cells fed with added oleic acid
[2] = measured here: cell number channel AC50, cells fed with added oleic acid

Cc1cc(=O)oc2c(C)c(OCC(=O)NCCCn3ccnc3)ccc12
cell number change: 21.4%

CCCCNS(=O)(=O)c1ccc(NC(=O)Cc2ccc(OC)cc2)cc1
cell number change: 20.5% | AC50 [1]: 29.1 µM [rising, single point]

Cc1ccc(S(=O)(=O)NC(=O)Nc2cccc(C)n2)cc1
cell number change: 24.2% | AC50 [2]: 2.91 µM [falling, single point] | AC50 [1]: 2.91 µM [falling, single point]

COc1cccc(/C=C/C(=O)c2cccc([N+](=O)[O-])c2)c1
cell number change: -23.2%

C=CCNC(=O)c1ccccc1NC(=O)c1ccccc1SC
cell number change: -2.55%

COc1ccc(OC)c(CCNC(=O)C2CCN(c3ncnc4c3nc3n4CCCCC3)CC2)c1
cell number change: -6.6%

CCOC(=O)c1ccccc1OCc1cc(/C=N/NC(=O)c2ccncc2)ccc1OC
cell number change: 18% | AC50 [2]: 0.13 µM [rising, full curve, poor fit] | AC50 [1]: 2.06 µM [rising, partial curve, poor fit]

CCC(C)N1C(=O)CCC1C(=O)NCc1ccc2c(c1)OCO2 (centres undefined)
cell number change: -27.7% | AC50 [1]: 6.51 µM [falling, single point]

O=[N+]([O-])c1ccccc1CNC1CCCCCC1
cell number change: -2.53%

COc1ccc(CC(=O)NC2CCN(Cc3nnnn3C(C)(C)C)CC2)cc1OC
AC50 [1]: 16.4 µM [falling, partial curve, poor fit]

CC(=O)Oc1ccc(C(=O)NCc2ccco2)cc1
cell number change: 15.6% | AC50 [1]: 29.1 µM [rising, single point]

O=C(CSc1nccc(-c2cccs2)n1)Nc1ccccc1
AC50 [1]: 6.51 µM [falling, single point]

COc1ccc(Cl)cc1NC(=O)COc1cccc(-n2cnnn2)c1
cell number change: -159%

O=c1oc(-c2cccs2)nc2c1cnn2-c1ccccc1
cell number change: 37.9% | AC50 [2]: 20.6 µM [rising, single point] | AC50 [1]: 0.146 µM [falling, full curve, poor fit]

Cc1ccc(N(CC(=O)NCC2CCCO2)C(=O)CCC(=O)Nc2nccs2)cc1 (centres undefined)
cell number change: 8.7% | AC50 [1]: 0.58 µM [rising, single point]

CCOC(=O)N1CCN(C(=O)c2ccc(C)c(S(=O)(=O)N3CCCCC3)c2)CC1
cell number change: -30.2% | AC50 [2]: 29.1 µM [falling, single point]

COc1ccccc1NS(=O)(=O)c1ccc(C(=O)N2CCCCCCC2)cc1
cell number change: -6.61% | AC50 [1]: 0.517 µM [rising, full curve, poor fit]

Cn1cc(C(=O)c2cccc(Cl)c2Cl)cc1C#N
cell number change: -29.2% | AC50 [1]: 29.1 µM [falling, single point]

C[C@H]1CNC(=O)C(=O)N1C[C@H](Cc1ccc(O)cc1)NC(=O)CC12CC3CC(CC(C3)C1)C2
cell number change: 18.9% | AC50 [2]: 4.61 µM [rising, partial curve] | AC50 [1]: 6.51 µM [rising, partial curve, poor fit]

Cc1c(C)c2c(OCC(=O)N[C@@H](C(=O)O)c3ccccc3)cc3c(c2oc1=O)CCC(C)(C)O3
cell number change: 6.8% | AC50 [1]: 5.8 µM [rising, partial curve, poor fit]

CC1(C)Cc2c(ccc3ccccc23)C(NNC(=O)c2cccnc2)=N1
cell number change: 25.7% | AC50 [1]: 11.6 µM [rising, partial curve, poor fit]

CC1/C(=N/O)CC(c2ccco2)NC1c1ccco1 (centres undefined)
cell number change: 14.5% | AC50 [2]: 1.64 µM [rising, partial curve]

O=C(Nc1ccccc1N1CCN(C(=O)c2ccc(Cl)cc2)CC1)c1ccc2c(c1)OCO2
cell number change: 58.7% | AC50 [2]: 0.517 µM [rising, full curve] | AC50 [1]: 0.461 µM [rising, full curve]

O=C(Nc1ccc(F)c(Cl)c1)C1CC(=O)n2c(nc3ccccc32)N1 (centres undefined)
cell number change: -40.2% | AC50 [2]: 29.1 µM [falling, single point]

O=[N+]([O-])c1ccc(OCn2cncn2)cc1
cell number change: 4.03% | AC50 [2]: 0.103 µM [falling, full curve, poor fit] | AC50 [1]: 0.092 µM [falling, full curve, poor fit]

Cc1cc(=O)[nH]c(/N=C(\N)Nc2ccc3c(c2)OCCO3)n1
cell number change: 86.4% | AC50 [2]: 3.26 µM [rising, full curve]

CC(Sc1c[nH]c2ccccc12)C(=O)O (centres undefined)
cell number change: 10.6% | AC50 [1]: 0.731 µM [rising, full curve, poor fit]

CC(=O)c1ccc(OC(=O)N(c2ccccc2)c2ccccc2)cc1
cell number change: 53.2% | AC50 [2]: 20.6 µM [rising, single point] | AC50 [1]: 16.4 µM [rising, partial curve]

O=C(NCc1ccco1)C1CCCN(S(=O)(=O)c2cccc3nonc23)C1 (centres undefined)
cell number change: -2.04%

COc1cc2nc(SCc3c(C)noc3C)n(CCC3=CCCCC3)c(=O)c2cc1OC
cell number change: -32.1% | AC50 [2]: 5.8 µM [falling, full curve] | AC50 [1]: 5.17 µM [falling, full curve, poor fit]

COc1cc2c(cc1OC)C(c1ccc(N(C)C)cc1)CC(=O)N2 (centres undefined)
cell number change: 1.59%

CC(=O)N1CCN(C(=O)c2cc(C)nc3ccccc23)CC1
cell number change: 5.54% | AC50 [1]: 11.6 µM [falling, partial curve]

CCOc1cc(N2CCOCC2)c(OCC)cc1NC(=O)C1CC(=O)N(c2ccccc2OCC)C1 (centres undefined)
cell number change: 45.6% | AC50 [2]: 29.1 µM [rising, single point] | AC50 [1]: 29.1 µM [rising, single point]

O=C(Nc1nccs1)C1Cc2ccccc2CN1S(=O)(=O)c1ccc(F)cc1 (centres undefined)
cell number change: -9.21% | AC50 [1]: 29.1 µM [falling, single point]

CCn1cc(Br)c(C(=O)NC(C)c2ccccc2)n1 (centres undefined)
cell number change: 0.0638% | AC50 [1]: 0.58 µM [rising, full curve]

O=C(O)CCCC(=O)Nc1cccc(C(F)(F)F)c1
cell number change: -17% | AC50 [1]: 29.1 µM [falling, single point]

O=C(OCc1cc([N+](=O)[O-])cc2c1OCOC2)c1cccnc1SC(F)F
cell number change: -50% | AC50 [2]: 0.517 µM [falling, full curve]

CCN(CC)c1ccc(/C=N/N2CCN(Cc3ccc(Cl)cc3)CC2)c(O)c1
AC50 [1]: 6.51 µM [falling, single point]
